The campaign covered roughly 320,000 compounds. About 22,000 (6.9%) were called active. This list was built around the results that the source calls inconclusive (neither active nor inactive); the mix of calls is not that of the screen. The call rests on the fitted dose curve; in most records, active means well fitted inhibition curve with a large enough effect; inconclusive means small, poorly fitted or top-dose-only effect, or another doubt; inactive means no such curve, though single readings can be large or run the other way. Where the call is inconclusive, the potency comes from a doubtful curve fit.
Test: Primary qHTS for delayed death inhibitors of the malarial parasite plastid, 96 hour incubation
Details: P. falciparum luciferase reporter growth; series mostly up to 28.7 µM
Method in brief: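 Delayed-death screen, second-generation endpoint: infected erythrocytes, 2% hematocrit, 0.05% parasitemia final; 96 hours at 37 C, 5% CO2; luciferase detection reagent; luminescence decrease equals reduced growth.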
With COc1ccc(C(=O)N2CCN(C3CCN(Cc4ccccc4)CC3)CC2)cc1OC the Potency was “inactive”.
In the case of CCOC(=O)c1csc(CCNC(=O)c2oc3c(Cl)cc(C)cc3c2C)n1, the Potency is reported as inconclusive: 18.5 µM [inhibitor, single point].
With COc1ccc(OCC(=O)N2CCc3ccccc3C2)cc1 the Potency was inconclusive: 1.65 µM [inhibitor, full curve].
With Cc1ccc(CN2C(=O)S/C(=C\c3ccccc3OCC(=O)O)C2=O)cc1 the Potency was active: 5.22 µM.
In the case of COc1ccc(-c2cc(C)no2)cc1S(=O)(=O)N(C)c1ccc(C)cc1, the Potency is reported as inconclusive: 10.4 µM [inhibitor, single point].
In the case of COc1ccc(CNS(=O)(=O)c2ccc(F)c(C(=O)Nc3ccc(OC)cc3)c2)cc1, the Potency is reported as inconclusive: 0.522 µM [inhibitor, partial curve, poor fit].
For CCOC(=O)N1CCN(C(=O)C2CCCN(S(=O)(=O)c3cccnc3)C2)CC1 (centres undefined), the Potency was inconclusive: 4.65 µM [inhibitor, partial curve, poor fit].
For COc1ccccc1[C@@H]1C(c2cccc(Cl)c2)=NN(c2ccc(Br)cc2)[C@H]1C(=O)N1CCOC1=O, the Potency was inconclusive: 13.1 µM [inhibitor, partial curve, poor fit].
With O=C(Nc1ccc(Cl)cc1F)C1CC1 the Potency was “inactive”.
For CN(C)CCCN1C(=O)c2oc3ccc(Cl)cc3c(=O)c2C1c1cccnc1 (centres undefined), the Potency was inconclusive: 18.5 µM [inhibitor, single point].
For O=C(CN1CCOCC1)N/N=C/c1c(O)ccc2ccccc12, the Potency was “inactive”.
With COc1cc(C(=O)NCCOc2ccccc2)cc(OC)c1OC the Potency was inconclusive: 10.4 µM [inhibitor, single point].
For CC1CC(C)CN(C(=O)c2ccc(NC(=O)c3ccc(=O)[nH]c3)cc2)C1 (centres undefined), the Potency was inconclusive: 8.28 µM [inhibitor, partial curve, poor fit].
With CCOC(=O)C(C)(C)N(Cc1ccccc1C)S(=O)(=O)c1ccc(Cl)c([N+](=O)[O-])c1 the Potency was active: 2.62 µM.
For O=C(CCNC(=O)c1ccc([N+](=O)[O-])cc1)NC1CCCc2ccccc21 (centres undefined), the Potency was inconclusive: 3.7 µM [inhibitor, single point].
For COc1ccc(/C=N/N(c2ccccc2)c2ccccc2)cc1O, the Potency was inconclusive: 11.7 µM [inhibitor, single point].
In the case of O=C(Cc1ccc(F)cc1)Nc1ccc(S(=O)(=O)N2CCCC2)cc1, the Potency is reported as inconclusive: 18.5 µM [inhibitor, single point].
For Cc1ccc(C(=O)NC2CC2)cc1S(=O)(=O)N1CCOCC1, the Potency was “inactive”.
In the case of O=C(N=Nc1c(O)[nH]c2ccc(Br)cc12)c1ccccc1-n1cccc1, the Potency is reported as inconclusive: 10.4 µM [inhibitor, single point].
In the case of Cc1c(C)c2ccc(OCC(=O)Nc3ccccn3)c(C)c2oc1=O, the Potency is reported as “inactive”.
With CC(C)CCNC(=O)CN(Cc1ccc2c(c1)OCO2)C(=O)Cn1nnc(-c2cccs2)n1 the Potency was inconclusive: 18.5 µM [inhibitor, single point].
For COc1ccc(-c2oc3cccnc3c2-c2ccc(OC)nc2)cc1, the Potency was inconclusive: 2.62 µM [inhibitor, single point].
In the case of CC1CCc2sc3nc(NCc4ccco4)n4ncnc4c3c2C1 (centres undefined), the Potency is reported as inconclusive: 18.5 µM [inhibitor, single point].
For Cc1nn(C)c(C)c1S(=O)(=O)N1CCC(C(=O)NC(C)c2ccccc2)CC1 (centres undefined), the Potency was inconclusive: 6.57 µM [inhibitor, partial curve, poor fit].
In the case of CC(NC(=O)CSc1nnc2n1CCCCC2)c1ccccc1Cl (centres undefined), the Potency is reported as inconclusive: 18.5 µM [inhibitor, single point].
For CCCNC(=O)c1ccc(COc2ccc(CCC)cc2OC)o1, the Potency was “inactive”.
In the case of CC(=O)Nc1cc(S(=O)(=O)Nc2ccccc2)c(C)cc1C, the Potency is reported as inconclusive: 18.5 µM [inhibitor, single point].
In the case of CCCN(CCC)CCSc1nc(O)c(C(C)C)c(=O)[nH]1, the Potency is reported as inconclusive: 18.5 µM [inhibitor, single point].
In the case of CCOC(=O)C1CCN(c2c(NCCN3CCN(c4ccccc4)CC3)c(=O)c2=O)CC1, the Potency is reported as “inactive”.
In the case of COc1ccc(-c2cc(C(=O)NC3=NCCS3)c3ccccc3n2)cc1OC, the Potency is reported as inconclusive: 10.4 µM [inhibitor, partial curve, poor fit].
With COc1ccc2c(c1)c(C(=O)N/N=C/c1cccc(O)c1)c(C)n2C the Potency was inconclusive: 9.28 µM [inhibitor, partial curve, poor fit].
With O=C(Cn1c2ccccc2c(=O)c2ccccc21)N/N=C/c1cc([N+](=O)[O-])ccc1N1CCCCCC1 the Potency was “inactive”.
In the case of CCC1CN(C(=O)N2CCC(C(=O)Nc3ccccc3OC)CC2)c2ccccc2O1 (centres undefined), the Potency is reported as inconclusive: 18.5 µM [inhibitor, single point].
For Cc1ccc(-c2ccc(C)c(N)c2C)c(C)c1N, the Potency was “inactive”.
In the case of O=C(c1cccs1)N1CCN(c2cc(Cl)ccc2Cl)CC1, the Potency is reported as inconclusive: 9.28 µM [inhibitor, single point].
In the case of CC(=O)N1CCSc2ccc(S(=O)(=O)Nc3cccc(C)c3)cc21, the Potency is reported as inconclusive: 0.828 µM [inhibitor, full curve].
For COc1ccc(Oc2ccc(C(F)(F)F)cc2NC(=O)c2ccc(OC)cc2)cc1, the Potency was inconclusive: 13.1 µM [inhibitor, single point].
In the case of CCN(CC(=O)Nc1c(Cl)cccc1Cl)C(=O)C1CCN(c2ncnc3sc(C)c(C)c23)CC1, the Potency is reported as “inactive”.
For CCC1CCCCN1S(=O)(=O)c1ccc(S(=O)(=O)N(Cc2ccccn2)CC2CCCO2)cc1 (centres undefined), the Potency was “inactive”.
In the case of COc1ccc2oc(C(=O)Nc3ccccn3)c(C)c2c1, the Potency is reported as “inactive”.
With O=C(NCCCN1CCOCC1)c1cccc(NS(=O)(=O)c2ccc(Br)cc2)c1 the Potency was inconclusive: 18.5 µM [inhibitor, single point].
For Cc1cc(S(=O)(=O)NCCCn2ccnc2)c(C)cc1Cl, the Potency was inconclusive: 6.57 µM [inhibitor, partial curve, poor fit].
With O=C(CCNc1n[nH]c(=O)[nH]c1=O)N1CCOCC1 the Potency was inconclusive: 11.7 µM [inhibitor, partial curve].
In the case of CCOC(=O)c1ccc(N2C(=O)[C@@H](c3ccccc3)[C@H]2c2ccccc2)cc1, the Potency is reported as inconclusive: 11.7 µM [inhibitor, single point].
In the case of Cc1ccc(-c2nnc(NC3CCCC3)s2)cc1, the Potency is reported as “inactive”.
With NS(=O)(=O)c1ccc(NC(=O)Nc2cccc(Cl)c2)cc1 the Potency was “inactive”.
With Cc1ccc(F)c(C2=CC(=O)C[C@H](c3ccc(F)cc3)C2)c1 the Potency was inconclusive: 3.29 µM [inhibitor, single point].
For COc1ccc(C(NC(=O)/C=C/c2ccco2)c2ccc(OC)c(OC)c2)cc1OC, the Potency was inconclusive: 5.86 µM [inhibitor, single point].
For O=C(Cc1cccc(NC(=O)C2CCN(C(=O)C3CCC3)CC2)c1)Nc1cccc(C(=O)N2CCCC2)c1, the Potency was inconclusive: 10.4 µM [inhibitor, single point].
For COc1cccc(OCCCCSc2ncccn2)c1, the Potency was inconclusive: 18.5 µM [inhibitor, single point].
For Cc1cccc(C(=O)Nc2ccnc(-c3ccncc3)n2)c1, the Potency was inconclusive: 13.1 µM [inhibitor, partial curve, poor fit].
For Cc1ccc2c(c1)cc1c(=O)n(CC(=O)NCCN3CCCC3)nc(C)n12, the Potency was active: 9.28 µM.
In the case of O=C(Nc1ccccc1F)N(CCCN1CCOCC1)Cc1cc2cc3c(cc2[nH]c1=O)OCCO3, the Potency is reported as “inactive”.
In the case of COc1ccc(-n2c(SCC(=O)N(C)c3ccccc3)nc3c([nH]c4ccccc43)c2=O)cc1OC, the Potency is reported as active: 4.65 µM.
With CCCCc1c(O)nc(SCC(=O)NC(C)(C)C)n(-c2ccccc2C)c1=O the Potency was inconclusive: 0.0738 µM [inhibitor, full curve, poor fit].
For C=CCOc1ccc(C=Nc2ccc(Cl)cc2)c(O)c1, the Potency was “inactive”.
In the case of OCCN1CCN(c2cc(C(F)(F)F)nc3ccccc23)CC1, the Potency is reported as “inactive”.
For CCn1c(COc2ccccc2)nnc1SCC(=O)NC1CC1, the Potency was “inactive”.
With Cc1nn(-c2ccccc2)c(C)c1/C=N/NC(=O)c1cc(C(C)(C)C)[nH]n1 the Potency was inconclusive: 9.28 µM [inhibitor, partial curve].
For O=[N+]([O-])c1ccccc1/C=C/C=N/Nc1ccc(S(=O)(=O)Nc2ccc(Cl)cc2)cc1[N+](=O)[O-], the Potency was “inactive”.
In the case of COc1cccc(C(=O)NCc2ccc3c(c2)OCO3)c1OC, the Potency is reported as inconclusive: 18.5 µM [inhibitor, single point].
In the case of O=C(CN1C(=O)c2ccccc2C1=O)Nc1nccs1, the Potency is reported as “inactive”.
In the case of O=C(CSC1CN(C(c2ccccc2)c2ccccc2)C1)N/N=C/c1ccccc1, the Potency is reported as inconclusive: 4.15 µM [inhibitor, partial curve].
In the case of CN(C)/N=N/c1nc[nH]c1C(N)=O, the Potency is reported as “inactive”.
In the case of O=C(CCCSc1nnc(Nc2ccccc2F)s1)N1CCOCC1, the Potency is reported as inconclusive: 5.86 µM [inhibitor, partial curve, poor fit].
For COc1ccc(NC(=O)CN(C)C(=O)c2cc(-c3ccc(OC)cc3)nc3ccccc23)cc1, the Potency was inconclusive: 10.4 µM [inhibitor, single point].
In the case of Cc1ccc(NC(=O)Nc2ccc3c(c2)nc(C)n3C)cc1, the Potency is reported as inconclusive: 18.5 µM [inhibitor, single point].
In the case of CN1CCN(S(=O)(=O)c2ccc3c(c2)NC(=O)C2CCCN32)CC1 (centres undefined), the Potency is reported as inconclusive: 10.4 µM [inhibitor, partial curve, poor fit].
In the case of CCNC(=S)N(Cc1ccc2c(c1)OCO2)C1CC(=O)N(c2ccc(F)cc2)C1=O (centres undefined), the Potency is reported as inconclusive: 11.7 µM [inhibitor, single point].

— PubChem BioAssay AID504834 (National Center for Advancing Translational Sciences (NCATS), 2011)
Potency means the concentration at half of the fitted maximal effect.
